From PMC6923656
Results are given in words; binding and its absence hold for the method and conditions named. In cells and extracts the contact can be indirect.

Amino acid sequences for entries named in this document (tags omitted).
UniProt D3ZGB1: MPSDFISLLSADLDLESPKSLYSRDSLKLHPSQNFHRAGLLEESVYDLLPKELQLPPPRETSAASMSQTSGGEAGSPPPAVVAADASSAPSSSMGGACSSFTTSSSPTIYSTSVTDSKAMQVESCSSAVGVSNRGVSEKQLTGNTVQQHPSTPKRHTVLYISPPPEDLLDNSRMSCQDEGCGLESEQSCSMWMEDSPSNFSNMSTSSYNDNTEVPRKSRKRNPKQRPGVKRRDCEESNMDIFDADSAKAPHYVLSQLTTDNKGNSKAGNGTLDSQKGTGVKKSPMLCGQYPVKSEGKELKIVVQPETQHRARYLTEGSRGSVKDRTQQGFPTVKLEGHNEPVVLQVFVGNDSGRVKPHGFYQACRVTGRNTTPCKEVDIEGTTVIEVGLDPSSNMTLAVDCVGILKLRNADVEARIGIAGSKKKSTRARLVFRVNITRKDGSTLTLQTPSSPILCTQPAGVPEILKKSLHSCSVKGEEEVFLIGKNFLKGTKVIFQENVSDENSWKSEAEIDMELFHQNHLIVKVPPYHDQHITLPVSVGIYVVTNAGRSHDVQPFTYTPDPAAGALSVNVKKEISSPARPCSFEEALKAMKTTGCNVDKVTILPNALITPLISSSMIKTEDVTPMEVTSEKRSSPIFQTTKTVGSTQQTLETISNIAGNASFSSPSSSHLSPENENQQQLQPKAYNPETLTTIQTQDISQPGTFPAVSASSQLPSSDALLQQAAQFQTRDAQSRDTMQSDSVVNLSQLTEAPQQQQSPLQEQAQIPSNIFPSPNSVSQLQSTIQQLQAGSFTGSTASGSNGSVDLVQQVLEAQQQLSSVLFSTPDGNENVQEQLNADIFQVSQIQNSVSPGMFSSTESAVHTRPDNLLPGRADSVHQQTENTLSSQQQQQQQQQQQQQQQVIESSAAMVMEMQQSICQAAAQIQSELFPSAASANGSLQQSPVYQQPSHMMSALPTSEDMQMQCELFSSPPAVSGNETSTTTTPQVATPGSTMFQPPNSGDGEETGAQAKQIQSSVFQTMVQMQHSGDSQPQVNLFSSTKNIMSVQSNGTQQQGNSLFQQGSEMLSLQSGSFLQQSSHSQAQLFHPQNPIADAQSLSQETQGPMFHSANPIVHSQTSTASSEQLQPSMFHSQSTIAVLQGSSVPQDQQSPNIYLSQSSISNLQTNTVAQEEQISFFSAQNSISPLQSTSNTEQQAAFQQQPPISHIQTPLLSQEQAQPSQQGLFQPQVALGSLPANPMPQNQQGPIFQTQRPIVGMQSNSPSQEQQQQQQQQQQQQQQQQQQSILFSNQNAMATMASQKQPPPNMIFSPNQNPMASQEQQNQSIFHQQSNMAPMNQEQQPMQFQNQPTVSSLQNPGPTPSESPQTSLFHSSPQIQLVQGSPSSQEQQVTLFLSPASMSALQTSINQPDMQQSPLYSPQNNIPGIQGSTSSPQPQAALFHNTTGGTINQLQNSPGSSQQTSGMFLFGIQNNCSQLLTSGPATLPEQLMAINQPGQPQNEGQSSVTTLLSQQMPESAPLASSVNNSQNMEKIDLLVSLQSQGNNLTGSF
UniProt O35800: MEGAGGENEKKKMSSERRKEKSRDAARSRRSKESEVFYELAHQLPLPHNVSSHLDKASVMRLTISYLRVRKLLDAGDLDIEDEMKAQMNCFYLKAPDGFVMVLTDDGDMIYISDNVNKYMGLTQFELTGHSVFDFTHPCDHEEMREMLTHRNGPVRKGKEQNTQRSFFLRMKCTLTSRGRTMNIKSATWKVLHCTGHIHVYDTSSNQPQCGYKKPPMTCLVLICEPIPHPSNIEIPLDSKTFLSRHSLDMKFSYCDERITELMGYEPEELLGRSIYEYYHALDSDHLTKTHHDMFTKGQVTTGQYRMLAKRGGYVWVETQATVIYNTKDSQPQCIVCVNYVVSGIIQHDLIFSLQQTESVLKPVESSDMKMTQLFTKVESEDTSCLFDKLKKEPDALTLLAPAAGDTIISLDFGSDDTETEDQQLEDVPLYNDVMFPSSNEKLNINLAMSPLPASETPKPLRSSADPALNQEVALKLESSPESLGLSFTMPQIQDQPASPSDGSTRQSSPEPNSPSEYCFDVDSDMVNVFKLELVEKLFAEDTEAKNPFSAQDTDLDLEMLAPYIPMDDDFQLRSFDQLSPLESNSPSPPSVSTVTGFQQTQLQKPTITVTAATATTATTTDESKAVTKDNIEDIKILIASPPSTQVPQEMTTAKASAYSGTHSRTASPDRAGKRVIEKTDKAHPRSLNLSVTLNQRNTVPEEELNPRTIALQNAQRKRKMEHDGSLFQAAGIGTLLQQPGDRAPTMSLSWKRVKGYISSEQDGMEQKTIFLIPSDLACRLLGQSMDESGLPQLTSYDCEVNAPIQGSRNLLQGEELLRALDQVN

Key:
[1] = target: nuclear factor of activated T cells 5 (NFAT5) (rat (endogenous in primary hippocampal neurons)) (UniProt D3ZGB1); test: co-IP; endogenous proteins in lysate of primary hippocampal neurons collected 6 h after OGD; RIPA buffer (50 mM Tris-HCl pH 7.4, 150 mM NaCl, 0.5% Triton X-100, 1 mM PMSF); precleared with protein A/G Sepharose, immunoprecipitated with antibodies against NFAT5, HIF-1α or IgG for 12 h at 4°C; four washes with RIPA buffer; western blot; both orientations
[2] = target: hypoxia-inducible factor-1α (HIF-1α) (rat (endogenous in primary hippocampal neurons)) (UniProt O35800); test: as above

In the case of “hypoxia-inducible factor-1α (HIF-1α) (from UniProt O35800 1-825)”, the binding [1] is reported as “no binding”.

In the case of “nuclear factor of activated T cells 5 (NFAT5) (from UniProt D3ZGB1 1-1548)”, the binding [2] is reported as “no binding”.
